Some of the results follow. Further columns of the screen follow, without active or inactive calls. The list favours compounds with an active or inconclusive main result. The note in brackets gives the kind of curve behind each potency; many fits are weak.
Assay: qHTS Assay for Lipid Storage Modulators in Drosophila S3 Cells;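 on cell number change: cells counted by Cell Tracker Red CMTPX staining in the red channel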
Settings: BODIPY lipid droplet fluorescence, 18-24 h; for cell number change: measured here: cell count max response, cells fed with added oleic acid
Outline: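 Drosophila S3 cells got compounds at several concentrations plus oleic acid (400 uM solution). Laser-scanning cytometry with 488 nm excitation read lipid droplets at 500-530 nm and cells at 575-640 nm. Percent activity was relative to 20 uM Triacsin C.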

[1] = measured here: lipid fluorescence (Fed channel) AC50, cells fed with added oleic acid
[2] = measured here: cell number channel AC50, cells fed with added oleic acid

| SMILES | AC50 [1] | cell number change | AC50 [2] |
| --- | --- | --- | --- |
| Cc1ccc(Cn2cc(C(=O)c3ccc(F)cc3)c(=O)c3cc4c(cc32)OCCO4)cc1 | 3.66 µM [rising, full curve] | – | – |
| O=C(Cc1ncc(C(F)(F)F)cc1Cl)N1CCN(c2cccc(Cl)c2)CC1 | – | 72.5% | 18.4 µM [rising, single point] |
| CC/C(=N\NC(=O)CNC(=O)/C=C/c1ccco1)c1ccccc1 | – | -32.4% | 0.184 µM [falling, full curve, poor fit] |
| COC(=O)c1ccccc1NS(=O)(=O)c1ccc2c3c(cccc13)C(=O)N2 | 0.58 µM [falling, single point] | -55.6% | 0.461 µM [falling, full curve] |
| O=C(Nc1nc(-c2ccccc2)cs1)c1cccc([N+](=O)[O-])c1 | 23.1 µM [falling, single point] | -13.5% | – |
| CCCn1c(SCc2nc3ccccc3s2)n[nH]c1=O | – | 34.9% | 6.51 µM [rising, single point] |
| CSc1ccc(CN2CCN(S(=O)(=O)Cc3ccccc3)CC2)cc1 | – | 22.7% | – |
| COC(=O)c1ccc(C(=O)OC)c(NC(=O)Nc2ccc3c(c2)OCO3)c1 | 18.4 µM [rising, partial curve] | 2.34% | – |
| COc1cc2nc(-c3ccccc3)nc(N3CCCC3)c2cc1OC | 0.13 µM [falling, full curve, poor fit] | 45% | 7.31 µM [rising, partial curve, poor fit] |
| O=C(CSCC(=O)Nc1ccc2ccccc2c1)NCc1ccccc1 | 4.11 µM [falling, full curve] | -8.83% | – |
| Nc1ccc(N2CCOCC2)c(S(=O)(=O)Nc2cc(Cl)ccc2Cl)c1 | 0.00461 µM [rising, full curve, poor fit] | 28.2% | 0.0058 µM [rising, full curve, poor fit] |
| CCC(C(=O)Nc1cc(C)on1)c1ccccc1 (stereo unspecified) | – | – | 4.61 µM [rising, single point] |
| N#Cc1ccccc1NC(=O)c1ccc2c(Cl)c3c(nc2c1)CCCC3 | 25.9 µM [falling, partial curve, poor fit] | -16.6% | – |
| Cc1cc(=O)oc2cc(OCC(=O)NC3CCCC3)ccc12 | 0.58 µM [rising, single point] | 9.59% | – |
| C=CCSc1nnc(-c2c[nH]c3ccccc23)n1CC | 25.9 µM [rising, single point] | 18.6% | 0.0058 µM [rising, full curve, poor fit] |
| Cc1nn(-c2ccc(Cl)cc2)c(=O)c2ccccc12 | 29.1 µM [rising, single point] | 26.5% | – |
| O=C(COc1ncnc2cc(Cl)ccc12)c1ccc2c(c1)OCCO2 | 0.146 µM [falling, partial curve, poor fit] | 5.42% | – |
| O=C(CC1C(=O)NCCN1Cc1ccccc1C(F)(F)F)NC1CCCCC1 (stereo unspecified) | – | 20.5% | – |
| CCS(=O)(=O)Nc1c(C(=O)OC)[nH]c2ccccc12 | – | 2.44% | – |

Ordered by formula weight (low to high): some entries from above

| SMILES | AC50 [1] | cell number change | AC50 [2] |
| --- | --- | --- | --- |
| CCC(C(=O)Nc1cc(C)on1)c1ccccc1 (stereo unspecified) | – | – | 4.61 µM [rising, single point] |
| N#Cc1ccccc1NC(=O)c1ccc2c(Cl)c3c(nc2c1)CCCC3 | 25.9 µM [falling, partial curve, poor fit] | -16.6% | – |
| CSc1ccc(CN2CCN(S(=O)(=O)Cc3ccccc3)CC2)cc1 | – | 22.7% | – |

(list continues)

| SMILES | AC50 [1] | cell number change | AC50 [2] |
| --- | --- | --- | --- |
| C=CCN1C(=O)CSC1=Nc1ccc(C(=O)O)cc1 | 7.31 µM [falling, single point] | 3.34% | – |
| COc1cc2c(cc1OC)C(COc1ccc(F)cc1)N(C(=O)c1ccco1)CC2 (stereo unspecified) | 29.1 µM [falling, single point] | -68.3% | 29.1 µM [falling, single point] |
| CSc1ccccc1NC(=O)COC(=O)Cn1cc(C(F)(F)F)ccc1=O | 14.6 µM [falling, single point] | -33.6% | 29.1 µM [falling, single point] |
| O=C(O)/C=C/C(=O)NNC(=O)c1cc(-c2ccccc2)n[nH]1 | – | 74.6% | 18.4 µM [rising, single point] |
| Cc1ccc(NC(=O)CN(C)Cc2c(O)ccc3ccccc23)cc1 | – | – | 0.00651 µM [rising, full curve, poor fit] |
| O=C(CSc1nnc(-c2ccccc2)n1-c1ccccc1)c1cccs1 | 0.0206 µM [falling, full curve, poor fit] | -25.4% | – |
| CCOC(=O)c1sc2nc(C)nc(NCCc3ccc(S(N)(=O)=O)cc3)c2c1C | 0.651 µM [rising, single point] | -5.83% | – |
| Cc1csc(C2=C(O)CN(c3ccc4c(c3)OCCOCCOCCOCCO4)C2=N)n1 | – | -16.1% | – |
| CCN(CC)S(=O)(=O)c1ccc(NN=C2CCN(C)CC2)c([N+](=O)[O-])c1 | 2.91 µM [falling, partial curve, poor fit] | – | – |
| O=C1C(c2cc(=O)c3ccccc3[nH]2)=C(O)c2ccccc21 | 5.17 µM [rising, single point] | -33.5% | 25.9 µM [falling, single point] |
| O=C1NC(=Nc2ccc3ccccc3c2)S/C1=C/c1ccco1 | – | -12.4% | – |
| C=CCn1c(-c2csc3c2CCC(C)C3)n[nH]c1=S (stereo unspecified) | 6.51 µM [rising, single point] | – | – |
| O=C(NCC(c1cccnc1)N1CCN(c2ccccc2F)CC1)c1ccccc1 (stereo unspecified) | 1.84 µM [rising, partial curve] | – | 1.46 µM [rising, partial curve] |
| NC(=O)CSc1nnc(COc2ccccc2)n1Cc1ccco1 | 0.731 µM [rising, single point] | 99.7% | 25.9 µM [rising, partial curve] |
| CCN1C(=O)/C(=C2/C=CC=CN2C)OC1=S | – | 5.09% | – |
| O=C(CC1C(=O)NCCN1C(=S)Nc1ccccc1)Nc1ccc2c(c1)OCCO2 (stereo unspecified) | 18.4 µM [rising, single point] | 16.5% | – |
| O=C(Cn1nnc2c(cnn2-c2ccc(F)cc2)c1=O)Nc1ccccc1C(F)(F)F | 4.11 µM [falling, full curve, poor fit] | -16.6% | – |
| CN(C)S(=O)(=O)n1cc(/C=C(\NC(=O)c2ccccc2Cl)C(=O)NCCCn2ccnc2)c2ccccc21 | 6.51 µM [rising, single point] | – | – |
| Cc1ccc(N(C(=O)c2csnn2)C(C(=O)NC2CCCCC2)c2ccccn2)c(C)c1 (stereo unspecified) | – | 25.4% | – |

From PubChem BioAssay AID2685 (National Center for Advancing Translational Sciences (NCATS), 2010)
